Measurements published in US20200332017A1.
Results are given in words; binding and its absence hold for the method and conditions named. Some binding calls cover weakened binding; strength is not graded here.

Biological target: cynomolgus monkey CD40-his protein (Acro biosystems, Cat # CD0-052H6) (cynomolgus monkey) (UniProt G7PG38)
Test: SPR, Biacore

binding | Binder
binds | humanized antibody huC1C1-V7 (antibody, human IgG1, kappa, V domains shown) VH: EVQLVESGGGVVQPGRSLRLSCAASGFTFSNYGMSWVRQAPGKGLEWVASISSGGDDTYYPDNVKGRFTISRDNSKNTLYLQMNSLRAEDTAVYYCTRAGGKAMDYWGQGTLVTVSS VL: EIVLTQSPATLSLSPGERATLSCRASQSIRDNLHWYQQKPGQAPRLLIYYASQSISGIPARFSGSGSGTDFTLTISSLEPEDFAVYYCQQFNSWPLTFGQGTKVEIKR
binds | mouse anti-CD40 monoclonal antibody C1C1 (antibody, V domains shown) VH: EVKLVESGGGLVKPGASLKLSCAASGFTFSNYGMSWVRQNSDKRLEWVASISSGGDDTYYPDNVKGRCTISRENAKNTLYLEMSSLKTEDTALYYCTRAGGKAMDYWGQGTSVTVST VL: DIVLTQSPATLSVIPGNSVSLSCRASQSIRDNLHWYQQKSHESPRLLINYASQSISGIPSRFSGSGSGTDFTLTINSVETEDFGIYFCQQFNSWPLTFGGGTKLELK
